# Primary screen of a compound library

Source: ChEMBL document CHEMBL3988442, “University of Dundee, Small-Polar-MMV Screening Library” (2021).

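Assay of Toxoplasma gondii numbers, read through their beta-galactosidase reporter with a colour substrate. Compounds at 10 µM. Higher reads as fewer parasites (inferred from which compounds were picked for retests). Size under these conditions: about 67,000 compounds, about 260 of them at 50% or above in at least one test.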

The filed quantity is “Percent Effect” (%).
The record does not define 0% and 100%; most values in the screen are far below 50% and negative numbers occur (in some assays of this library far below -100).
Compounds were drawn at random from those tested, without regard to their results.

| Compound | percent effect |
|---|---|
| `CN(Cc1ccccc1)C(=O)CN1CCCC(Cn2cncn2)C1` (stereo not drawn) | -36.27 |
| `COCCN(C)C[C@@H]1CN(C(=O)c2cccc(C#N)c2)C[C@@H]1CO` | 17.17 |
| `Cc1cc(-c2nnn(CCC(N)=O)n2)ccc1F` | 13.56 |
| `COC(=O)CCc1c(C)nc2cc(O)nn2c1C` | 2.965 |
| `CCn1ncnc1CN(CCOC)Cc1ccc(C)cc1` | -11.32 |
| `Cn1cc(CN2CCC(F)(F)C3(CCN(c4cnccn4)C3)C2)cn1.O=C(O)C(F)(F)F.O=C(O)C(F)(F)F` (stereo not drawn) | 1.612 |
| `Cc1cc(C[C@@H]2COC[C@H]2NCc2ccc(Br)s2)on1.O=C(O)CC(O)(CC(=O)O)C(=O)O` | 8.905 |
| `CNC(=O)NCC1CCC2(CCN(c3ncccn3)CC2)CO1` (stereo not drawn) | -8.188 |
| `CC(C)n1cnnc1CN(C)C(=O)c1cc(COc2ccccc2)[nH]n1` | 1.594 |
| `Cc1cc(CNC(=O)C2CCCN2C(=O)OC(C)(C)C)no1` (stereo not drawn) | -1.095 |
| `Cc1cc(C2CCCN(C(=O)c3ccc(C)[nH]c3=O)C2)n[nH]1` (stereo not drawn) | -1.781 |
| `CCCn1ncc(-c2nc3c(cnn3CC)[nH]2)c1C` | 4.111 |
| `COc1ncccc1CN1CCC2(CC1)COCCN2C.O=C(O)C(F)(F)F.O=C(O)C(F)(F)F` | 1.672 |
| `Cc1cccc(C)c1NC(=O)NCC1CCCN(C2CCOCC2)C1` (stereo not drawn) | 9.056 |
| `Cc1cccnc1CN(C)CC1(O)CCCN(CC2CCCCC2)C1=O` (stereo not drawn) | 4.105 |
| `O=C(O)C(F)(F)F.O=C(O)C(F)(F)F.[H][C@@]12OCCN(Cc3ccsc3)[C@@]1([H])CC[C@H]2OCc1cccc(C)n1` | 2.564 |
| `COc1ccc(CN(Cc2cncn2C)CC2CCCO2)c(OC)c1.O=C(O)CC(O)(CC(=O)O)C(=O)O` (stereo not drawn) | 23.77 |
| `CCOCc1nc(-c2ccc(F)cc2Cl)n(C2CCN(C)CC2)n1` | -4.118 |
| `O=C(Nc1cccc(C(F)F)c1)N[C@@H]1C=C[C@H](CO)C1` | 10.68 |
| `COC[C@]1(O)CCN(c2cc(C3CC3)ncn2)CC1(C)C` | 34.23 |
| `O=C(Nc1cccn(Cc2ccc(F)cc2)c1=O)c1csnn1` | 2.89 |
| `Cc1cccc(C)c1-c1cc(NCCO)nc2[nH]ccc12` | -4.619 |
| `Cc1nnc(NC(=O)CN2CCc3c(nc(C4CC4)n3C)C2)s1` | 8.683 |
| `CO[C@H]1CN(C(C)C)C[C@@H]1NC(=O)c1cc(-c2ccccc2F)n[nH]1` | -0.634 |
| `Cl.FC(F)CNc1cnc(C2CCCN2)cn1` (stereo not drawn) | 32.64 |
| `N#Cc1ccccc1CN1CCC(c2nccn2CC2CCC2)CC1` | 4.255 |
| `Cc1ccc2c(n1)N(CC1CC1)CCN(Cc1ccco1)C2.O=C(O)C(F)(F)F.O=C(O)C(F)(F)F` | -0.9449 |
| `NC(=O)c1c(NC(=O)CCCC(=O)O)sc2c1CCc1ccccc1-2` | 4.004 |
| `Clc1ccc(CN2CCN(Cn3nccc3-c3cccnc3)CC2)s1` | -0.1873 |
| `CCN1CCN(C2CCN(Cc3nnc(C4CC4)o3)CC2)C1=O` | 1.883 |
| `CC(C)c1csc(C2CCCN(C(=O)c3ccc[nH]3)C2)n1` (stereo not drawn) | 2.634 |
| `CSCC(CCO)NC(=O)Nc1ccc(Br)cc1` (stereo not drawn) | -25.69 |
| `COc1ccc2c(c1)NC(C1CCN(C(=O)C(C)C)CC1)NS2(=O)=O` (stereo not drawn) | 22.25 |
| `CC(=O)N1CCN(C(C)c2ccc(Br)cc2)CC1` (stereo not drawn) | 1.919 |
| `CCc1nn(C)c2[nH]nc(NC(=O)c3cccnc3OC)c12` | 2.429 |
| `Cc1cnc(CN(Cc2ccccc2)CC2CCOCC2)cn1` | -25.37 |
| `O=C(c1cc2ccccc2[nH]1)N1CCCCC1Cn1cccn1` (stereo not drawn) | -7.005 |
| `CCn1cc(NC(=O)NCc2ccc(CO)c(F)c2)cn1` | -9.85 |
| `Cc1ccc(F)c(C(=O)N2C[C@@H](C(=O)O)[C@H](c3ccncc3)C2)c1Cl` | -0.575 |
| `CCN(C(=O)CN1CCN(CC(C)O)CC1)C1=CCCCC1` (stereo not drawn) | 2.31 |
| `CC(NC(=O)Nc1ccccc1CN1CCOCC1)c1nccs1` (stereo not drawn) | -1.913 |
| `COc1ccnc(N2CCN(C(=O)COCC(F)(F)F)CC2)n1` | 25.35 |
| `O=C(C[S+]([O-])Cc1ccc(F)cc1Cl)N1CCc2sccc2C1` (stereo not drawn) | 2.174 |
| `Cc1nn(C)cc1CN1CCCC(n2c(=O)oc3ccc(Cl)cc32)C1` (stereo not drawn) | 5.277 |
| `CCOc1ncccc1Cn1cc(-c2nccn2C)nn1` | -3.653 |
| `Cn1ncc2c(N3CCS(=O)(=O)CC3)nc(C3CCCC3)nc21` | 5.606 |
| `CCO[C@@H]1CO[C@@]2(CCCN(C(=O)COc3ccccc3OC)C2)C1` | -4.989 |
| `CN1C(=O)CC(c2ccccc2)C12CCN(C(=O)c1ccc[nH]1)CC2` (stereo not drawn) | 4.157 |
| `Cc1ccn(CCNC(=O)C2CCN(S(=O)(=O)c3ccc(F)cc3)C2)n1` (stereo not drawn) | 19.26 |
| `CC(NC(=O)CNCCn1cccn1)c1ccc2c(c1)CCCC2` (stereo not drawn) | 3.07 |
| `CC(C)N(C)Cc1cn2c(n1)CN(C(=O)c1ccc[nH]1)CC2` | -17.34 |
| `Cc1cc(NCCN)nc(-c2ccccc2O)n1` | 27.3 |
| `Cc1cccc(NC(=O)C2CC(=O)n3cnnc3S2)c1` (stereo not drawn) | 45.01 |
| `[H][C@@]12CCCCN(C)[C@]1([H])[C@@H](c1ccccc1)CCN2C(=O)c1cccnc1` | -20.72 |
| `CN(C)S(=O)(=O)N1CCCC(c2ccncn2)C1` (stereo not drawn) | 9.916 |
| `Cc1noc(C)c1CN(C)C(=O)NCCOc1ccc(F)cc1F` | -5.06 |
| `CCc1ccc(CCC(=O)N2CCC(=O)Nc3cccnc32)cc1` | -3.062 |
| `N#Cc1ccc(SCCC(=O)N(Cc2cccnc2)C2CC2)cc1` | -33.87 |
| `CCc1nc(C2CCCN2C(=O)CCc2nc(C(C)(C)C)no2)no1` (stereo not drawn) | -13.58 |
| `Cc1cc(C2CCCN(CCCS(N)(=O)=O)C2)n[nH]1` (stereo not drawn) | 0.1142 |
| `CCn1nc(CC(C)C)cc1C(=O)N1CC(c2ccncc2)C1` | -2.829 |
| `O=C1Nc2ccccc2CC12CCCN2Cc1cccnc1` (stereo not drawn) | 19.7 |
| `CCS(=O)(=O)N1CCC2(CN(c3cc(OC)ncn3)C2)C1` | -19.19 |
| `CNc1cc(C(=O)N2CCC3(CC2)Nc2ccccc2NC3=O)ccn1` | -8.435 |
| `O=C(O)C(F)(F)F.[H][C@@]12CCN(c3nnc(C)s3)C[C@]1([H])O[C@H](C(=O)N1CCCC1)C2` | -10.85 |
| `CC(=O)NCc1nc(CCOc2ccc(Cl)cc2)no1` | 5.408 |
| `O=C(O)C(F)(F)F.O=C(O)C(F)(F)F.[H][C@@]12COC[C@]1(COCC1CCOCC1)CN(Cc1ccccn1)C2` | 1.701 |
| `CCCc1noc(C(C)N(CC)Cc2ccco2)n1` (stereo not drawn) | 7.74 |

The first 8 entries again:

Result for CN(Cc1ccccc1)C(=O)CN1CCCC(Cn2cncn2)C1 (stereo not drawn) was -36.27%.
Result for COCCN(C)C[C@@H]1CN(C(=O)c2cccc(C#N)c2)C[C@@H]1CO was 17.17%.
Result for Cc1cc(-c2nnn(CCC(N)=O)n2)ccc1F was 13.56%.
Result for COC(=O)CCc1c(C)nc2cc(O)nn2c1C was 2.965%.
Result for CCn1ncnc1CN(CCOC)Cc1ccc(C)cc1 was -11.32%.
Result for Cn1cc(CN2CCC(F)(F)C3(CCN(c4cnccn4)C3)C2)cn1.O=C(O)C(F)(F)F.O=C(O)C(F)(F)F (stereo not drawn) was 1.612%.
Result for Cc1cc(C[C@@H]2COC[C@H]2NCc2ccc(Br)s2)on1.O=C(O)CC(O)(CC(=O)O)C(=O)O was 8.905%.
Result for CNC(=O)NCC1CCC2(CCN(c3ncccn3)CC2)CO1 (stereo not drawn) was -8.188%.